In the supplement of paper PMC12067093, “Discovery and optimisation of a covalent ligand for TRIM25 and its application to targeted protein ubiquitination” (Chemical Science, 2025):
The list shows a part of the results.

Chains of the proteins cited; added tags and fusions are not shown. Lines headed by an entry give the natural chain unless they say otherwise; changes in a name come on top.
UniProt P55786: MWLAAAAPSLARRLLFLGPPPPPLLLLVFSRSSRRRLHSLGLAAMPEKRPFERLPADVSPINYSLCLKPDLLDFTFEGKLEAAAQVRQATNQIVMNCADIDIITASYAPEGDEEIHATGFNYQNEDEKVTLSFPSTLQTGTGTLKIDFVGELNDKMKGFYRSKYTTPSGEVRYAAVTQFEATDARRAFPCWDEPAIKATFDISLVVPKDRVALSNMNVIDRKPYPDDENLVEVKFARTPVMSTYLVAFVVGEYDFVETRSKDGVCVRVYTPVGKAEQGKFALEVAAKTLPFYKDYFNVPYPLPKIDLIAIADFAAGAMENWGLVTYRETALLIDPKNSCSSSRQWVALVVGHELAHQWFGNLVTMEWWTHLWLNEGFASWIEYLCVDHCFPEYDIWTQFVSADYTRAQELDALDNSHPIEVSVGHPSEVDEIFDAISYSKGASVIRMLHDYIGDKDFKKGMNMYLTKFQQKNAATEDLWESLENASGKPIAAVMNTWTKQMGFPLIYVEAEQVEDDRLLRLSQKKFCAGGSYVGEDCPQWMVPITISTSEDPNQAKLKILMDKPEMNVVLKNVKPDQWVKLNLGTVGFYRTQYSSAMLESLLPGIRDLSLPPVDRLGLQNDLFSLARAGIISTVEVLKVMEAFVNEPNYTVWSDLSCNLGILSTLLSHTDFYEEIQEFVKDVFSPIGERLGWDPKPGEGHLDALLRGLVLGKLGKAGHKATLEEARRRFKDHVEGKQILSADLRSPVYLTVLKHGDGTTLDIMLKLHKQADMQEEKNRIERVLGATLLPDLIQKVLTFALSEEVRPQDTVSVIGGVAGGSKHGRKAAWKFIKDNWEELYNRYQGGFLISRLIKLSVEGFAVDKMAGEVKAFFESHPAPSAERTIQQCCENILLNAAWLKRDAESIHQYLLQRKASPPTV
UniProt Q14207: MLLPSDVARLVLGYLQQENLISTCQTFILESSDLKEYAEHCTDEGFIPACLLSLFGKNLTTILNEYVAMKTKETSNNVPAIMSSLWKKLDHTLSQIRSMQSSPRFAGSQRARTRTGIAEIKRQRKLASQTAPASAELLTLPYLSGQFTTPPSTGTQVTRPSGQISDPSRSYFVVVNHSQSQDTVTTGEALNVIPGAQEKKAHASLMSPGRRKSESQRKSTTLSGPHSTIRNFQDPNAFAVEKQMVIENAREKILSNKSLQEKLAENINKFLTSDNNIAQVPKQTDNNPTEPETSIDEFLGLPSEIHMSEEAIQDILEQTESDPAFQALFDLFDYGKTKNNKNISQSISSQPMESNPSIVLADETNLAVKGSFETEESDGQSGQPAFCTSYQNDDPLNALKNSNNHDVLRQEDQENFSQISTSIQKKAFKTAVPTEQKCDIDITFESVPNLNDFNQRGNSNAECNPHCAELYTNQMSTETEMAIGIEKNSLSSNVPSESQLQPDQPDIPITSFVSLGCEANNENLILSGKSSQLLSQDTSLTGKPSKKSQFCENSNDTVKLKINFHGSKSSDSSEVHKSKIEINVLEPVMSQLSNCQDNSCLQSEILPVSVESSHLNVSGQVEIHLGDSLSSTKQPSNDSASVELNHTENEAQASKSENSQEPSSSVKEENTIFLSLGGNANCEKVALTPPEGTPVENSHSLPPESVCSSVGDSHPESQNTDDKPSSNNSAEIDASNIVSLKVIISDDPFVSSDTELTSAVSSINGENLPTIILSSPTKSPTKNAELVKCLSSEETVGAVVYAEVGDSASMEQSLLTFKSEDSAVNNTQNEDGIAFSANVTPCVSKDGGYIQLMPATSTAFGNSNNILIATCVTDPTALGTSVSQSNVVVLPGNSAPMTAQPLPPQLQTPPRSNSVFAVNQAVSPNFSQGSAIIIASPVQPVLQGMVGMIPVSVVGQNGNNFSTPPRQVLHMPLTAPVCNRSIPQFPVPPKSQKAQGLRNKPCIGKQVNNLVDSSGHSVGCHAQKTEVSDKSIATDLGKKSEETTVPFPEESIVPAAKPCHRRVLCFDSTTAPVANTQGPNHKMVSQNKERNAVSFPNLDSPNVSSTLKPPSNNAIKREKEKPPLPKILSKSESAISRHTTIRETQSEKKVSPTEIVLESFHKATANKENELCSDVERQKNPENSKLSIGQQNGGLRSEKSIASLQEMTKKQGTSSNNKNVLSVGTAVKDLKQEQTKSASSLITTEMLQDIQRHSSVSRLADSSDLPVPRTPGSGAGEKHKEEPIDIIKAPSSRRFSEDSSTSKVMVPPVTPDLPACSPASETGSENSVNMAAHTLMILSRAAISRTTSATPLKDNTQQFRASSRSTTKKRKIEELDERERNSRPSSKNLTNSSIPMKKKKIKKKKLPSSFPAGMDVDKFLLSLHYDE
UniProt Q9UK39: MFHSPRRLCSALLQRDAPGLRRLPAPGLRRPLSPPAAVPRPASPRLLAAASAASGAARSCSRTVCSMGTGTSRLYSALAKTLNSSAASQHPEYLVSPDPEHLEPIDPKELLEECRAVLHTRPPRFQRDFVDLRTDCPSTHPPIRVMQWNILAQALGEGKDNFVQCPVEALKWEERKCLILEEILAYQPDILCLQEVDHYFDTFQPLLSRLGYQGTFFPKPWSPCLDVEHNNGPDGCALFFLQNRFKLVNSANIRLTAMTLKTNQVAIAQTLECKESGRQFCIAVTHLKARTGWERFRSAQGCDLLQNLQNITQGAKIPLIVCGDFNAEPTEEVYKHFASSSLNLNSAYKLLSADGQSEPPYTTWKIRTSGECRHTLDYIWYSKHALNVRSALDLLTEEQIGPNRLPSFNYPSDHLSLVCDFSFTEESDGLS
UniProt Q5SY16: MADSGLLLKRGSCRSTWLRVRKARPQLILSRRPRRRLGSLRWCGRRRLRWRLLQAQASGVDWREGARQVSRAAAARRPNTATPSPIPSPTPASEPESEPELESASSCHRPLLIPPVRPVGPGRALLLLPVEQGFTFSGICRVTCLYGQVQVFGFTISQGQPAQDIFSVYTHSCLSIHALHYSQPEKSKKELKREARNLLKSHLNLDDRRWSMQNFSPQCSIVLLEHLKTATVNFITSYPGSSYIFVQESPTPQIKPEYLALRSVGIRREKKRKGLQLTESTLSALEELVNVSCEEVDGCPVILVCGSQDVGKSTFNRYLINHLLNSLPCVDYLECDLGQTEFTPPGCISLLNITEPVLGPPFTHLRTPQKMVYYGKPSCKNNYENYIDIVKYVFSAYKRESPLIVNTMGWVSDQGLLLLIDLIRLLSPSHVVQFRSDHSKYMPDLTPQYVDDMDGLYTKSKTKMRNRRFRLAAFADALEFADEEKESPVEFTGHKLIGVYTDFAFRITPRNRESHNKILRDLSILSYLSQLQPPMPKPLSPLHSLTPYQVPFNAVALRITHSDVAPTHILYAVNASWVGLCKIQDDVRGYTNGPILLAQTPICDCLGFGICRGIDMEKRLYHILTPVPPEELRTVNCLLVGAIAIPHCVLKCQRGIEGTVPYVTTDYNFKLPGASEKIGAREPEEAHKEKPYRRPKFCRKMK
UniProt P49116: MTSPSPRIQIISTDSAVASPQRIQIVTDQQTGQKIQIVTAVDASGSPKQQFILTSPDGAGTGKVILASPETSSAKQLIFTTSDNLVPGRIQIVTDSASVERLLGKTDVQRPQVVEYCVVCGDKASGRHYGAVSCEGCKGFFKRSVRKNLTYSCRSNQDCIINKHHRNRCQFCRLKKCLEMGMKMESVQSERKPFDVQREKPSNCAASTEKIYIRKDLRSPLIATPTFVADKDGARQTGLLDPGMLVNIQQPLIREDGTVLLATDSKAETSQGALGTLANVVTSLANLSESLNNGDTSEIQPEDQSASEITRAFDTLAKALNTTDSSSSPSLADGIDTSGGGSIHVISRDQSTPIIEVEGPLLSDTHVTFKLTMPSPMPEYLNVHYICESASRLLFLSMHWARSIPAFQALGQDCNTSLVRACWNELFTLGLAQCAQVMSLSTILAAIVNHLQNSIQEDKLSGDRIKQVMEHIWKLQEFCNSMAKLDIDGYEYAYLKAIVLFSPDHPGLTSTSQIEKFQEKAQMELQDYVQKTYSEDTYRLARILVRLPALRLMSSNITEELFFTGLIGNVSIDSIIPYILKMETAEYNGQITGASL
UniProt Q8WX94: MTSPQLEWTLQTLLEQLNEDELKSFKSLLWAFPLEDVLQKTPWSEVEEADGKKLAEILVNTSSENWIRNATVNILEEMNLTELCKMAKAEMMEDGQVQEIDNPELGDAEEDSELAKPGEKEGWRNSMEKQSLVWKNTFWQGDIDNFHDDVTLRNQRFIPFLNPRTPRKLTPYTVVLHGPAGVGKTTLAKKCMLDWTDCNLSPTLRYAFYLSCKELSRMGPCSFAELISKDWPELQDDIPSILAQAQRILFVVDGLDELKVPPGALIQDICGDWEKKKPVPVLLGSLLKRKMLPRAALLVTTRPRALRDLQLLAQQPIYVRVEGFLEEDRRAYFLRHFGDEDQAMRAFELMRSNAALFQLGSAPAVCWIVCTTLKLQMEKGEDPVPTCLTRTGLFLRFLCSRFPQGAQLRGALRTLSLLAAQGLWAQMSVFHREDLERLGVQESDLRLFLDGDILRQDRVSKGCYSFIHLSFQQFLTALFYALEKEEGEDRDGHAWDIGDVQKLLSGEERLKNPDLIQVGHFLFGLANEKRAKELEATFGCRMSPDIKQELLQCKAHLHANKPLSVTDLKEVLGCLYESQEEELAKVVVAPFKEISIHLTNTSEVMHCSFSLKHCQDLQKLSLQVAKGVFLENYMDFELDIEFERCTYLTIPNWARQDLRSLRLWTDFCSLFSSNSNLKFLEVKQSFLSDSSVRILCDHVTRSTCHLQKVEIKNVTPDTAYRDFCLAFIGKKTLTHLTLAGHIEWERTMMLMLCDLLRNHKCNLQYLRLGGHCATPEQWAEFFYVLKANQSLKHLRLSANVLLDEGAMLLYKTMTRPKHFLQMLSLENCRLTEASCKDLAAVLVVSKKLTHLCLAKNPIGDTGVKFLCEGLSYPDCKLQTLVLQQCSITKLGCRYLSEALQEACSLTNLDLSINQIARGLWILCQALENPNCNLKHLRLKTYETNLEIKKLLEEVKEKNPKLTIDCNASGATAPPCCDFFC
UniProt Q86WQ0: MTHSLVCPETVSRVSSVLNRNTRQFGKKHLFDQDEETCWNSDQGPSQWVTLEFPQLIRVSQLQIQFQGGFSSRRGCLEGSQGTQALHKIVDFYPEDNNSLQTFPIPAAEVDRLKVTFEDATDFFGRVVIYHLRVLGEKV
UniProt Q8TAT6: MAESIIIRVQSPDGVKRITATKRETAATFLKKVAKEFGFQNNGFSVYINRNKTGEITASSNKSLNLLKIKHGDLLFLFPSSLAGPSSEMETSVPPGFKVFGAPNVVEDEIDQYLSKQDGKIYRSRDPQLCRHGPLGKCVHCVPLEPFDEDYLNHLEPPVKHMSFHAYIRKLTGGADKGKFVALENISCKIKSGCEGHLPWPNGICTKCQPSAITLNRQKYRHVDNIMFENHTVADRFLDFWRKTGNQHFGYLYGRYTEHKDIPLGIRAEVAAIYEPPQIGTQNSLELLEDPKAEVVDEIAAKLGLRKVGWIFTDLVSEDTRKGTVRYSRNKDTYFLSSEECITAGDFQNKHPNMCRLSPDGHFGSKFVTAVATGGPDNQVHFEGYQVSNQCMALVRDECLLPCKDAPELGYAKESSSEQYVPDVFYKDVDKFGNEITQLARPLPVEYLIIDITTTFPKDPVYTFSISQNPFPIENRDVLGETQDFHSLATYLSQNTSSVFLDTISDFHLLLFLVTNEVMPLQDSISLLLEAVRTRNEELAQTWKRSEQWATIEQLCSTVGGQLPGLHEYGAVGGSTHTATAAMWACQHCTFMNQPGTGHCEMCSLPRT
UniProt Q9H8H0: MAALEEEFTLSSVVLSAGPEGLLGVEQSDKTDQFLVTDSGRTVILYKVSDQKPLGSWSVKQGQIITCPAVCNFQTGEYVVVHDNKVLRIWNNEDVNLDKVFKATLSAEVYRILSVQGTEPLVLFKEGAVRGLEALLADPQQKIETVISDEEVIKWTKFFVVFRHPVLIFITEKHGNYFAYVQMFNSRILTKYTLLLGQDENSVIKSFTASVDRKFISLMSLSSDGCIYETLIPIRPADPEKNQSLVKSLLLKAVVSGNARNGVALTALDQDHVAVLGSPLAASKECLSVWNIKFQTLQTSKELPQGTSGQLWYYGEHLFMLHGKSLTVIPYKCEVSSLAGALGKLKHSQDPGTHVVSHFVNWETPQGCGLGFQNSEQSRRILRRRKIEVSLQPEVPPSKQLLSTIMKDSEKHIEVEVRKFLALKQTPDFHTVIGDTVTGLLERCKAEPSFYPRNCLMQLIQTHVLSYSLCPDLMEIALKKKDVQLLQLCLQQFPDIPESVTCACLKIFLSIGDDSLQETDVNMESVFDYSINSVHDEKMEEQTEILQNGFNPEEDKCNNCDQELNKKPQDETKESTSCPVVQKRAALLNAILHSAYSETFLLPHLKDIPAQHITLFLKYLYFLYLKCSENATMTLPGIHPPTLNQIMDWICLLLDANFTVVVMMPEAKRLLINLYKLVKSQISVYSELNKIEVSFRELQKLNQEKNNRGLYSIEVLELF

Compound: CC1Cc2ccccc2N1C(=O)C1CCCN(C1)C(=O)CCl (mixture of isomers) [TRIM25 ligand 11 (diastereomer mixture)]
Assay: probe-labelled cysteine peptide fold change vs DMSO (competition) (log2 fold change); higher = less target engagement (more negative = stronger competition)
Conditions: THP-1, incubation time: 4 h
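Also: competitive chemoproteomic profiling in live THP-1 cells with an iodoacetamide desthiobiotin (IA-DTB) probe, comparing probe-labelled peptide intensities in compound-treated cells against DMSO-treated controls.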

Target | probe-labelled cysteine peptide fold change (10 µM) | probe-labelled cysteine peptide fold change (50 µM)
NKAP_Q8N5F7_47_SHSCSR (UniProt Q8N5F7) | 0.0491 | 0.0658
NOTCH2_Q04721_264_NIDDCPNHR (UniProt Q04721) | 0.0592 | 0.0855
NPEPPS_P55786_887_TIQQCCENILLNAAWLK (UniProt P55786) | -0.024 | -0.179
NPAT_Q14207_50_EYAEHCTDEGFIPACLLSLFGK (UniProt Q14207) | 0.194 | -0.21
NOCT_Q9UK39_136_TDCPSTHPPIR (UniProt Q9UK39) | -3.04e-05 | -0.206
NOL9_Q5SY16_140_ALLLLPVEQGFTFSGICR (UniProt Q5SY16) | -0.058 | -0.376
NR2C2_P49116_153_NLTYSCR (UniProt P49116) | 0.108 | 0.165
NLRP7_Q8WX94_540_ELEATFGCR (UniProt Q8WX94) | -0.0769 | -0.083
NR2C2AP_Q86WQ0_7_THSLVCPETVSR (UniProt Q86WQ0) | 0.106 | -0.0117
NOL6_Q9H6R4_486_LQAACHR (UniProt Q9H6R4) | -0.0458 | 0.0451
NPLOC4_Q8TAT6_341_DTYFLSSEECITAGDFQNK (UniProt Q8TAT6) | 0.13 | 0.142
NOM1_Q5C9Z4_65_LAVEEFVHATSEGEAPGGCEGR (UniProt Q5C9Z4) | -0.014 | -0.344
NPLOC4_Q8TAT6_403_DECLLPCK (UniProt Q8TAT6) | 0.0256 | -0.0669
NSUN4_Q96CB9_197_TLALLQTGCCR (UniProt Q96CB9) | 0.0618 | -0.126
NOL11_Q9H8H0_578_ESTSCPVVQK (UniProt Q9H8H0) | -0.00732 | 0.00271

An excerpt from the list above, as a working copy:
Target | probe-labelled cysteine peptide fold change (10 µM) | probe-labelled cysteine peptide fold change (50 µM)
NR2C2_P49116_153_NLTYSCR (UniProt P49116) | 0.108 | 0.165
NLRP7_Q8WX94_540_ELEATFGCR (UniProt Q8WX94) | -0.0769 | -0.083
NR2C2AP_Q86WQ0_7_THSLVCPETVSR (UniProt Q86WQ0) | 0.106 | -0.0117
